A short description of this data set: peptide synthesis. Particulars: conjugation step.

With pepa-pic2-C-Hex-KuE, the conjugation yield turned out to be 39%.

Source of the values: paper PMC12703665 (Journal of the American Chemical Society, 2025).
